Test results from the supplement of paper PMC6411743.
± gives the standard deviation of the averaged measurements. The list shows a part of the results, in another mix than the full data.

Assays:
Assay in all cases: NP40-soluble protein abundance relative to vehicle (solubility fold change) (ratio); higher = more soluble protein in presence of AMP-PNP
[1] = target: T1, G3V5P0 and related entries (UniProt Q86UP2)
T1 sequence (whole entry): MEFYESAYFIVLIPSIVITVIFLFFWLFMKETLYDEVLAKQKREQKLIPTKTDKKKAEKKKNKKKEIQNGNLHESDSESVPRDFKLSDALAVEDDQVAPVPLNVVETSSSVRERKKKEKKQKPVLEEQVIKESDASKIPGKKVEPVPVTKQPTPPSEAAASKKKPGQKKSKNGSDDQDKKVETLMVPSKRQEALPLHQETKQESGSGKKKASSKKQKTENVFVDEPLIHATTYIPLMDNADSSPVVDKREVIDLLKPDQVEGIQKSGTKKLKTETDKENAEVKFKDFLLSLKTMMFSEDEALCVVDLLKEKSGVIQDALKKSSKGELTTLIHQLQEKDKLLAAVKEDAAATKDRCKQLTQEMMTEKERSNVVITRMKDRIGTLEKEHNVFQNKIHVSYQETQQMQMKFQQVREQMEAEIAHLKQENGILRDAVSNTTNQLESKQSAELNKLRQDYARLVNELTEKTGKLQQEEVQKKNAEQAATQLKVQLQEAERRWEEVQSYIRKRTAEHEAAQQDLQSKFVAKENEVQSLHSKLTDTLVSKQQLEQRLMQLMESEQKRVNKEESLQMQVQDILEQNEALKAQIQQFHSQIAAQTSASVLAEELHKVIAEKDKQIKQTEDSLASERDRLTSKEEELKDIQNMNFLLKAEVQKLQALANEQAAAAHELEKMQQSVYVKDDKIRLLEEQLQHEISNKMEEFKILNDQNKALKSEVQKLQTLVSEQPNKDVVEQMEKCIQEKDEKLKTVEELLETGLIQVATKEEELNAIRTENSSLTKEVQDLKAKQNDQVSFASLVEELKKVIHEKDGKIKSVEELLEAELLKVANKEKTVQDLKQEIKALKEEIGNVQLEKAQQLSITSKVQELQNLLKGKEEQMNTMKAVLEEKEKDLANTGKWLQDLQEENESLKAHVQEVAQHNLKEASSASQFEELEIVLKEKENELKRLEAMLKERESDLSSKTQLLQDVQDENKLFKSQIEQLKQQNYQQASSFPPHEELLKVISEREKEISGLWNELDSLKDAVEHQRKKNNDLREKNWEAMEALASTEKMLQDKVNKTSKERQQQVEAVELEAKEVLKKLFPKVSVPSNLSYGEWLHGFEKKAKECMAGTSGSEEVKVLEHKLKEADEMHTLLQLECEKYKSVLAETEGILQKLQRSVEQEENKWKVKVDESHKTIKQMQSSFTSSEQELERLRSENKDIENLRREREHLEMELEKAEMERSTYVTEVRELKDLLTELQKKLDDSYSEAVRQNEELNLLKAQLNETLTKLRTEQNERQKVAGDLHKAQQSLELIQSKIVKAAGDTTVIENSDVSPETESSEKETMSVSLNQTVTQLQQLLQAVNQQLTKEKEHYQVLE
Outline: (§1)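 Data come from three independent experiments in which Dounce-homogenised Jurkat crude lysate was treated at eight concentrations from 0.1 to 10 mM. Treatment ran 10 min at room temperature and then 3 min at 37 °C, after which 0.8% NP40 and benzonase were added for 60 min at 4 °C before ultracentrifugation. The supernatant underwent TMT labelling and LC-MS/MS, and vsn-normalised intensities were expressed as fold change against the detergent-processed vehicle in each replicate.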

[2] = target: T2, G3V5T0 and related entries (UniProt O43708)
T2 sequence (whole entry): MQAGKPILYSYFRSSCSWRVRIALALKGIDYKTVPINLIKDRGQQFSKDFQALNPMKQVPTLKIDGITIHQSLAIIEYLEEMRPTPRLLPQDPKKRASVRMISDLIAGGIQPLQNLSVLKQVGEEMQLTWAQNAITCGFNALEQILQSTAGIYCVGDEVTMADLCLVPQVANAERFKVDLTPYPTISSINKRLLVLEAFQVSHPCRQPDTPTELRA
Outline: as §1

[3] = target: T3, G5E9V4 and related entries (UniProt Q969F9)
T3 sequence (whole entry): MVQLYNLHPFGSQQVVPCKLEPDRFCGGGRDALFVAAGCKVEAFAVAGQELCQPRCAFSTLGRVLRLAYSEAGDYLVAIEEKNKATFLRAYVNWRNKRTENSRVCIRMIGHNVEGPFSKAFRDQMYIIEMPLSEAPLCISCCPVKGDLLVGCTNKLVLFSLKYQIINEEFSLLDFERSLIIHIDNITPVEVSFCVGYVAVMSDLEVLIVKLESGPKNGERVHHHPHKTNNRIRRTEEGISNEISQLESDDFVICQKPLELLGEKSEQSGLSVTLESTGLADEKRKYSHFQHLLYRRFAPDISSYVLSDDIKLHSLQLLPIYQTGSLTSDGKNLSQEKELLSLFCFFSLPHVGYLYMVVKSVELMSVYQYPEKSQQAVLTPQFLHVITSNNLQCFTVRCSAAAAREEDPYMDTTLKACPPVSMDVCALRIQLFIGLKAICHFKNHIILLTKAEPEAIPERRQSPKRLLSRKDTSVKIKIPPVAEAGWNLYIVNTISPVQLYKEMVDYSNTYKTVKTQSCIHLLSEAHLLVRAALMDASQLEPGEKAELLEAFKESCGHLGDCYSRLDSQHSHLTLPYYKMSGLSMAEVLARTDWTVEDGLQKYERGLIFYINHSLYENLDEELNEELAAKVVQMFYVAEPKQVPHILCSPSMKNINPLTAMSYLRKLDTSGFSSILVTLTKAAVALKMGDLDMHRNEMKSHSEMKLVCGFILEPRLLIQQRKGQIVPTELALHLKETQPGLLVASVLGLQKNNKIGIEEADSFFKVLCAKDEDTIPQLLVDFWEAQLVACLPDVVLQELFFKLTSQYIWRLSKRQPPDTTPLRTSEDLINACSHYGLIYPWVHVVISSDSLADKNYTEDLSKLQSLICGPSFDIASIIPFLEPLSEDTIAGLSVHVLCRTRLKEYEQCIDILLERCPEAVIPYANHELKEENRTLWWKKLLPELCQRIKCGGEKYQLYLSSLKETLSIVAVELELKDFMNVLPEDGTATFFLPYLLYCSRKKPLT
Outline: as §1

[4] = target: T4, H0Y9I3 and related entries (UniProt Q9HAV4)
T4 sequence (whole entry): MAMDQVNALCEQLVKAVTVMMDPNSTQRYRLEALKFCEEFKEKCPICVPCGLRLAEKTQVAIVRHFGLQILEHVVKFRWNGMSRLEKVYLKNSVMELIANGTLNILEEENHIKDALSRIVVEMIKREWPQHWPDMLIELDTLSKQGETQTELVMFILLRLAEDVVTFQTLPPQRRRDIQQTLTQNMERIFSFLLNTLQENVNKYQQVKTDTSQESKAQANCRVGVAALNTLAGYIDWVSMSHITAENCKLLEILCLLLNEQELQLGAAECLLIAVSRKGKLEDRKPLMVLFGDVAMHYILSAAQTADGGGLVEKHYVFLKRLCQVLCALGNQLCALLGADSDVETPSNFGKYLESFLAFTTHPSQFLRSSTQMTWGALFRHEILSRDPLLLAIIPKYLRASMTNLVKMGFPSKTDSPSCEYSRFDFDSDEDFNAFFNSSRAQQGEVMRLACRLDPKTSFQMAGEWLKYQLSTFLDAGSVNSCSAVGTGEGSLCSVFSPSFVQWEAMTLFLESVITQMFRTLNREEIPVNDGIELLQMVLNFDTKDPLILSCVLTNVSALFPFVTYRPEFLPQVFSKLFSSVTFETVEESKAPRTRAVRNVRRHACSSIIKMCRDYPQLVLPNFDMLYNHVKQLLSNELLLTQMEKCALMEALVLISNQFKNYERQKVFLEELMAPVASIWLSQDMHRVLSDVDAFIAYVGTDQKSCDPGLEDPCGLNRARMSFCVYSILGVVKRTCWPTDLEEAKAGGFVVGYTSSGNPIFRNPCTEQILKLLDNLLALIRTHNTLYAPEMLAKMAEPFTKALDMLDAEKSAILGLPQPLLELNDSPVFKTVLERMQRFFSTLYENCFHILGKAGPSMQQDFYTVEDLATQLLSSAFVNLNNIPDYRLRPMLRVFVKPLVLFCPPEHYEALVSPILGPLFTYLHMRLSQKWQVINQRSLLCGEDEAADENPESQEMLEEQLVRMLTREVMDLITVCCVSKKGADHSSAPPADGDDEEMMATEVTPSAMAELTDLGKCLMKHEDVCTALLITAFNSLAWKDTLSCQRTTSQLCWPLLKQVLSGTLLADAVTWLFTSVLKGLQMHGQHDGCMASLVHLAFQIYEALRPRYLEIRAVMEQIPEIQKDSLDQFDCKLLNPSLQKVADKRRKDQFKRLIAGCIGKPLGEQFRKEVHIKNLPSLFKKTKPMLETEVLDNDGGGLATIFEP
Outline: as §1

[5] = target: T5, H0YBI6 and related entries (UniProt Q86VQ6); conditions: concentration: 1mM
T5 sequence (whole entry): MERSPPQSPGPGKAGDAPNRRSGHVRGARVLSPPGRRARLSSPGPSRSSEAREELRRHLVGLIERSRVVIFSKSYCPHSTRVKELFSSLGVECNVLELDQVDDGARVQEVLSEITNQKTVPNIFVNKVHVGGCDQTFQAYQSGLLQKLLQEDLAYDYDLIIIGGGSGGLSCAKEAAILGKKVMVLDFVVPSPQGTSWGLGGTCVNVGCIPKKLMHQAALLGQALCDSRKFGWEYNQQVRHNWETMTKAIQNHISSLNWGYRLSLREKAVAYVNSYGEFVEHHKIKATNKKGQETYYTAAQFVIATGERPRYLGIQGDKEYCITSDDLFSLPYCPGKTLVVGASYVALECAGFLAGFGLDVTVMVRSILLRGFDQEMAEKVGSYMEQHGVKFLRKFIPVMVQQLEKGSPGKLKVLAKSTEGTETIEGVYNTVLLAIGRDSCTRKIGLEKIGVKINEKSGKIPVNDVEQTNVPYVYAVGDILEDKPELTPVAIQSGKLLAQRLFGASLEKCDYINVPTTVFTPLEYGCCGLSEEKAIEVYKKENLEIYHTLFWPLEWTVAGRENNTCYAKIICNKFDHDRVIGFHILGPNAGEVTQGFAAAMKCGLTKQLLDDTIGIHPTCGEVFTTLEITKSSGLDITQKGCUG
Outline: as §1

Nc1ncnc2c1ncn2[C@@H]1O[C@H](COP(=O)(O)OP(=O)(O)NP(=O)(O)O)[C@@H](O)[C@H]1O [adenylyl imidodiphosphate]
NP40-soluble protein abundance ([1]; concentration: 1mM): 1.02 ± 0.043 | NP40-soluble protein abundance ([1]; concentration: 2mM): 1.08 ± 0.051 | NP40-soluble protein abundance ([1]; concentration: 4mM): 0.995 ± 0.028 | NP40-soluble protein abundance ([1]; concentration: 6mM): 0.991 ± 0.071 | NP40-soluble protein abundance ([1]; concentration: 8mM): 0.957 ± 0.044 | NP40-soluble protein abundance ([1]; concentration: 10mM): 0.972 ± 0.031 | NP40-soluble protein abundance ([2]; concentration: 1mM): 0.9873 ± 0.0084 | NP40-soluble protein abundance ([2]; concentration: 2mM): 0.942 ± 0.032 | NP40-soluble protein abundance ([2]; concentration: 4mM): 0.956 ± 0.016 | NP40-soluble protein abundance ([2]; concentration: 6mM): 0.956 ± 0.019 | NP40-soluble protein abundance ([2]; concentration: 8mM): 0.975 ± 0.0099 | NP40-soluble protein abundance ([2]; concentration: 10mM): 0.935 ± 0.017 | NP40-soluble protein abundance ([3]; concentration: 1mM): 0.963 ± 0.038 | NP40-soluble protein abundance ([3]; concentration: 2mM): 0.948 ± 0.022 | NP40-soluble protein abundance ([3]; concentration: 4mM): 0.983 ± 0.017 | NP40-soluble protein abundance ([3]; concentration: 6mM): 0.978 ± 0.021 | NP40-soluble protein abundance ([3]; concentration: 8mM): 0.99 ± 0.037 | NP40-soluble protein abundance ([3]; concentration: 10mM): 0.98 ± 0.035 | NP40-soluble protein abundance ([4]; concentration: 1mM): 0.972 ± 0.025 | NP40-soluble protein abundance ([4]; concentration: 2mM): 0.918 ± 0.044 | NP40-soluble protein abundance ([4]; concentration: 4mM): 0.945 ± 0.04 | NP40-soluble protein abundance ([4]; concentration: 6mM): 0.924 ± 0.017 | NP40-soluble protein abundance ([4]; concentration: 8mM): 0.9446 ± 0.0092 | NP40-soluble protein abundance ([4]; concentration: 10mM): 0.8992 ± 0.008 | NP40-soluble protein abundance [5]: 1 ± 0.02
